Among the data in patent publication US11851642B2, “Test device” (HITACHI HIGH-TECH CORPORATION, priority 2015, dated 2023) are MIC values, retold here.

In experiment [1] the test system is Staphylococcus aureus separated from the patient A. The experiment can be described thus: antimicrobial susceptibility testing by microscopic observation, areas of the bacteria. The format is cell-based. The settings on record: 5 h, read-out: concentration at which the proliferation is interrupted (MIC determination result). From the text:
(§1) In order to perform the antimicrobial susceptibility testing, antimicrobial agents different from each other are set so as to be respectively contained in the culture fluids in each of the wells in particular concentrations. An order of the culturing is as follows. First, the bacterial suspension is introduced into the culture plate 18. Then, the bacterial suspension is in a state of being mixed with the culture fluid which is included in each of the wells, and the temperature controller 16 is set to a temperature of approximately 35° C. Furthermore, culture is performed by performing incubation such that the temperature of each of the wells in the culture plate 18 reaches the set temperature. Then, in the bacteriological testing instrument 1, while performing the incubation, the bacteria included in each of the wells can be monitored through the microscopic observation optical system. The microscopic observation may be performed for a set period of time from the start of the incubation till the end thereof by continuously monitoring the state of bacterial proliferation. In addition, the monitoring may be performed at the set time after setting appropriate time, and the monitoring result can be compared with the monitoring result when the incubation is started. In addition, similar to the bacteriological testing instrument in the related art, the turbidity of each of the wells may be measured through the turbidity measurement optical system while incubating the culture plate 18. The measured result may be compared with the monitored result of the microscopic observation optical system.
(§2) The processor determines whether the bacteria proliferate or the proliferation is interrupted under the corresponding culture condition, based on the microscopic image to which the above-described necessary treatments are performed. […] More specifically, based on the image after the treatment illustrated in FIGS. 4 to 6, for example, the areas of the bacteria are calculated, and it is determined whether or not the proliferation is performed by creating the graph as illustrated in FIG. 12. […]

Experiment [2] concerns Staphylococcus aureus separated from the patient B. The description is as above. In kind it is cell-based. The settings on record: 5 h, read-out: concentration at which the proliferation is interrupted (MIC determination result).
Description: as §1, §2

Structures are written as SMILES. Read-outs that look alike come from different tables or passages of the source. Bounds are passed on as bounds.

Turning to `CC1(C)S[C@@H]2[C@H](NC(=O)[C@H](N)c3ccccc3)C(=O)N2[C@H]1C(=O)O` [ampicillin], the MIC in experiment [1] (images within 300 minutes from the start of culture (FIG. 18, FIG. 19(a))) was at least 0.25 µg/mL. In the case of `CN[C@H](CC(C)C)C(=O)N[C@H]1C(=O)N[C@@H](CC(N)=O)C(=O)N[C@H]2C(=O)N[C@H]3C(=O)N[C@H](C(=O)N[C@H](C(=O)O)c4cc(O)cc(O)c4-c4cc3ccc4O)[C@H](O)c3ccc(c(Cl)c3)Oc3cc2cc(c3O[C@@H]2O[C@H](CO)[C@@H](O)[C@H](O)[C@H]2O[C@H]2C[C@](C)(N)[C@H](O)[C@H](C)O2)Oc2ccc(cc2Cl)[C@H]1O` [vancomycin], the MIC in experiment [1] is at least 0.5 µg/mL; in experiment [2], at least 1 µg/mL.
